Measured values reported in publication PMC6604343.
These are yes or no findings as the source states them, for the method shown. Binding seen in cells or lysates may run through a third protein. Some binding calls cover weakened binding; strength is not graded here.

Protein sequences, listed by entry. Tags and fused reporters are not part of them.
UniProt P14598: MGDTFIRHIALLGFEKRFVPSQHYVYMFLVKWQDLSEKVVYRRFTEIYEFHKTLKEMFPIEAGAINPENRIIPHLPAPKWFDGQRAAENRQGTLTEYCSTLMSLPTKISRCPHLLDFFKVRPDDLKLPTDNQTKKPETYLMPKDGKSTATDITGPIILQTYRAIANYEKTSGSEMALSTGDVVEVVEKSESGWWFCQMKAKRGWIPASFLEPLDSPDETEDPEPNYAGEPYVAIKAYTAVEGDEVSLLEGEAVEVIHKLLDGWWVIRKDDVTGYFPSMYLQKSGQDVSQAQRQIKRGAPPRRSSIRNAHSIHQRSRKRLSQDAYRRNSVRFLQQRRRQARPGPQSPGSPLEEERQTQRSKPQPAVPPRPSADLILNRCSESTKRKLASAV

T1: NOX2 (human (endogenous in human umbilical vein endothelial cells)) (UniProt P04839)
T1 sequence: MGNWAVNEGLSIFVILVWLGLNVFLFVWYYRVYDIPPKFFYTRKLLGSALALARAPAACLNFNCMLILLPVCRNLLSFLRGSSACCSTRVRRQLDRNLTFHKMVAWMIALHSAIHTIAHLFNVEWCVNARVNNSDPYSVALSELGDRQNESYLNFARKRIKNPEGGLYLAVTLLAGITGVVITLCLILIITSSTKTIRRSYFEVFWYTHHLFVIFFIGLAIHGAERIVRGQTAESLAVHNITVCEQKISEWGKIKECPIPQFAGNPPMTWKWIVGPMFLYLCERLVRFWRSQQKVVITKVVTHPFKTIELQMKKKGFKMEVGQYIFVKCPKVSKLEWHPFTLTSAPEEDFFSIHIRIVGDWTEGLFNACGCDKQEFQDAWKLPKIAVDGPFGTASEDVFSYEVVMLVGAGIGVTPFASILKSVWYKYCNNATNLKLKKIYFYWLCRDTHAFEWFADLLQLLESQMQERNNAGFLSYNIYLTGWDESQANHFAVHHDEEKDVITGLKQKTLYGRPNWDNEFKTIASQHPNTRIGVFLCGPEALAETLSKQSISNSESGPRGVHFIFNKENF

T2: caveolin-1 (human (endogenous in human umbilical vein endothelial cells)), Q03135
T2 chain: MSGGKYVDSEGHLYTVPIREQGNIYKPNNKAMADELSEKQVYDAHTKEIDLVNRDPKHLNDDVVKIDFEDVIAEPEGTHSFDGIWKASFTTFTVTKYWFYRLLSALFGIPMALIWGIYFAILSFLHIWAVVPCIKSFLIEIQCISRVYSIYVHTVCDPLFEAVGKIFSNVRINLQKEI


Tests used:
[1] = biological target: T1, NOX2 (human (endogenous in human umbilical vein endothelial cells)); experiment: co-IP; whole cell lysate of endothelial cells exposed to oscillatory shear stress (OSS) for different times; which of the two was precipitated is not stated; blot quantified for p47
[2] = biological target: T2, caveolin-1 (human (endogenous in human …)); experiment: co-IP; lysate of endothelial cells after flow treatment (OSS; also with siTLR4) incubated with caveolin-1 (antibody) overnight at 4°C, protein A+G 4 h, washed five times with RIPA; blot for total eNOS; settings: remark: other sources report otherwise

binding [1] | binding [2] | Molecule
binds | – | p47 (from UniProt P14598 1-390)
– | binds | endothelial nitric oxide synthase, P29474 1-1203 (enzyme) MGNLKSVAQEPGPPCGLGLGLGLGLCGKQGPATPAPEPSRAPASLLPPAPEHSPPSSPLTQPPEGPKFPRVKNWEVGSITYDTLSAQAQQDGPCTPRRCLGSLVFPRKLQGRPSPGPPAPEQLLSQARDFINQYYSSIKRSGSQAHEQRLQEVEAEVAATGTYQLRESELVFGAKQAWRNAPRCVGRIQWGKLQVFDARDCRSAQEMFTYICNHIKYATNRGNLRSAITVFPQRCPGRGDFRIWNSQLVRYAGYRQQDGSVRGDPANVEITELCIQHGWTPGNGRFDVLPLLLQAPDDPPELFLLPPELVLEVPLEHPTLEWFAALGLRWYALPAVSNMLLEIGGLEFPAAPFSGWYMSTEIGTRNLCDPHRYNILEDVAVCMDLDTRTTSSLWKDKAAVEINVAVLHSYQLAKVTIVDHHAATASFMKHLENEQKARGGCPADWAWIVPPISGSLTPVFHQEMVNYFLSPAFRYQPDPWKGSAAKGTGITRKKTFKEVANAVKISASLMGTVMAKRVKATILYGSETGRAQSYAQQLGRLFRKAFDPRVLCMDEYDVVSLEHETLVLVVTSTFGNGDPPENGESFAAALMEMSGPYNSSPRPEQHKSYKIRFNSISCSDPLVSSWRRKRKESSNTDSAGALGTLRFCVFGLGSRAYPHFCAFARAVDTRLEELGGERLLQLGQGDELCGQEEAFRGWAQAAFQAACETFCVGEDAKAAARDIFSPKRSWKRQRYRLSAQAEGLQLLPGLIHVHRRKMFQATIRSVENLQSSKSTRATILVRLDTGGQEGLQYQPGDHIGVCPPNRPGLVEALLSRVEDPPAPTEPVAVEQLEKGSPGGPPPGWVRDPRLPPCTLRQALTFFLDITSPPSPQLLRLLSTLAEEPREQQELEALSQDPRRYEEWKWFRCPTLLEVLEQFPSVALPAPLLLTQLPLLQPRYYSVSSAPSTHPGEIHLTVAVLAYRTQDGLGPLHYGVCSTWLSQLKPGDPVPCFIRGAPSFRLPPDPSLPCILVGPGTGIAPFRGFWQERLHDIESKGLQPTPMTLVFGCRCSQLDHLYRDEVQNAQQRGVFGRVLTAFSREPDNPKTYVQDILRTELAAEVHRVLCLERGHMFVCGDVTMATNVLQTVQRILATEGDMELDEAGDVIGVLRDQQRYHEDIFGLTLRTQEVTSRIRTQSFSLQERQLRGAVPWAFDPPGSDTNSP
